Earlier results in US11506670B2, “Method of genome-wide direct identification of electrophile-sensing targets” (Cornell University, priority 2018, dated 2022).

System: HaloTag
Conditions: cited from earlier work

CCCCCCCCCCCCC/C=C/C=O [2-HD, 2-trans-hexadecenal]
liberation of LDE after photo-uncaging (in the presence of 1% SDS): efficient liberation | liberation of LDE after photo-uncaging (without SDS): no liberation was observed

Where two headings read alike, the source gives them in different places.
